Experimental data: PubChem BioAssay AID1508588 (Peter MacCallum Cancer Centre, 2020)

- Assay: 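Knock-downs boosting vemurafenib effects on melanoma cell growth or lactate release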 (primary screen)
- Cells: human WM266.4 melanoma cells (BRAF V600 mutant)
- Reagent: siRNA pool against human genes, 40 nM
- Timing: 96 h from transfection to read-out
- Treatment: vemurafenib 300 nM (about IC25), added 48 h after transfection, for 48 h; comparison arm got DMSO vehicle only
- Measured: 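Cell gain (DAPI nuclei at end minus before drug, mean of two replicates) and medium lactate by absorbance per cell, both as ratio to non-targeting siRNA, also grouped into fold-change classes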
- Direction: cell gain with vemurafenib: higher = more cell gain than with non-targeting siRNA; lactate per cell with vemurafenib: higher = more lactate made per cell
- Hit rule: 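a knock-down counts as enhancing when its fold-change classes with vehicle and with vemurafenib, taken together, show a stronger drug effect on cell gain or lactate per cell; exact class pairs not stated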
- Calls: active = enhances vemurafenib effect; inactive = no enhancement seen
This is a random part of about 18,000 reagents tested. Over the whole deposit, 790 (4.4%) got an active call. 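Calls rest on a combination of fold-change classes in drug and vehicle arms, not all shown here.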

After knock-down of AMDHD1 the results were cell gain with vemurafenib 0.91; lactate per cell with vemurafenib 1.29; inactive.
For BAGE3 the deposit lists cell gain with vemurafenib 0.19; lactate per cell with vemurafenib 0.46; inactive.
Against FUCA1 the deposit lists cell gain with vemurafenib 0.46; lactate per cell with vemurafenib 2.25; inactive.
IQCK gave cell gain with vemurafenib 0.23; lactate per cell with vemurafenib 1.21; inactive.
Silencing of ADGRF1 gave: cell gain with vemurafenib 1.05; lactate per cell with vemurafenib 0.99; inactive.
For MIS12 the deposit lists cell gain with vemurafenib 0.36; lactate per cell with vemurafenib 0.9; inactive.
Against TTC17, the values are cell gain with vemurafenib 0.4; lactate per cell with vemurafenib 1.18; inactive.
Silencing of ACAT2 came out at: cell gain with vemurafenib 0.71; lactate per cell with vemurafenib 0.59; inactive.
With knock-down of SORCS3 the results were cell gain with vemurafenib 0.3; lactate per cell with vemurafenib 0.58; inactive.
MIGA2 gave cell gain with vemurafenib 0.87; lactate per cell with vemurafenib 1.54; inactive.
Knock-down of RNF144B gave: cell gain with vemurafenib 0.68; lactate per cell with vemurafenib 1.01; inactive.
After knock-down of CRTAC1 the results were cell gain with vemurafenib 0.22; lactate per cell with vemurafenib 1.19; inactive.
Silencing of CD79B came out at: cell gain with vemurafenib 0.83; lactate per cell with vemurafenib 1.02; inactive.
CSNK1G2-AS1 showed cell gain with vemurafenib 0.84; lactate per cell with vemurafenib 0.77; inactive.
FAM194C gave cell gain with vemurafenib 0.75; lactate per cell with vemurafenib 0.57; inactive.
PLAAT5 showed cell gain with vemurafenib 0.65; lactate per cell with vemurafenib 0.94; inactive.
After knock-down of TMEM127, the screen gave cell gain with vemurafenib 0.85; lactate per cell with vemurafenib 0.5; inactive.
Silencing of SPMIP4 gave: cell gain with vemurafenib -0.18; lactate per cell with vemurafenib 2.2; inactive.
ZNF77 gave cell gain with vemurafenib 0.3; lactate per cell with vemurafenib 1.25; inactive.
Against GIPC1, the entry reads cell gain with vemurafenib 0.58; lactate per cell with vemurafenib 0.4; active.
After knock-down of RTKN2, the record shows cell gain with vemurafenib 0.54; lactate per cell with vemurafenib 1.08; inactive.
Against SNRPB2, the entry reads cell gain with vemurafenib 0.46; lactate per cell with vemurafenib 0.4; inactive.
After knock-down of TNFRSF6B the results were cell gain with vemurafenib 0.47; lactate per cell with vemurafenib 0.76; inactive.
Against ASCL3, the entry reads cell gain with vemurafenib 0.35; lactate per cell with vemurafenib 1.5; inactive.
Against SPTBN1, the entry reads cell gain with vemurafenib 0.43; lactate per cell with vemurafenib 1.58; inactive.
NUP88 gave cell gain with vemurafenib 0.52; lactate per cell with vemurafenib 1.17; inactive.
CCL16 gave cell gain with vemurafenib 1.12; lactate per cell with vemurafenib 0.18; active.
MRPL39 showed cell gain with vemurafenib 0.68; lactate per cell with vemurafenib 0.84; inactive.
Silencing of PLA2G10 resulted in: cell gain with vemurafenib 0.45; lactate per cell with vemurafenib 1.43; inactive.
After knock-down of C9orf72, the screen gave cell gain with vemurafenib 0.43; lactate per cell with vemurafenib 1.08; inactive.
Silencing of CD1D resulted in: cell gain with vemurafenib 0; lactate per cell with vemurafenib 0.65; inactive.
PRODH gave cell gain with vemurafenib 0.39; lactate per cell with vemurafenib 0.6; inactive.
For COL25A1 the deposit lists cell gain with vemurafenib 0.46; lactate per cell with vemurafenib 1.15; inactive.
TPCN1 showed cell gain with vemurafenib 0.38; lactate per cell with vemurafenib 1.62; inactive.
NUDT21 gave cell gain with vemurafenib 0.48; lactate per cell with vemurafenib 1.08; inactive.
With knock-down of FRS3, the screen gave cell gain with vemurafenib 0.91; lactate per cell with vemurafenib 0.78; inactive.
KRTAP20-1 scored cell gain with vemurafenib 0.73; lactate per cell with vemurafenib 0.71; inactive.
After knock-down of XPNPEP3, the record shows cell gain with vemurafenib 0.77; lactate per cell with vemurafenib 1.15; inactive.
For RPS10, the values are cell gain with vemurafenib 0; lactate per cell with vemurafenib 1.34; inactive.
KRTAP3-1 scored cell gain with vemurafenib 1.13; lactate per cell with vemurafenib 0.6; inactive.

No new results follow: entries from further up.
PLA2G10 | cell gain with vemurafenib = 0.45; lactate per cell with vemurafenib = 1.43; outcome = inactive
C9orf72 | cell gain with vemurafenib = 0.43; lactate per cell with vemurafenib = 1.08; outcome = inactive
CD1D | cell gain with vemurafenib = 0; lactate per cell with vemurafenib = 0.65; outcome = inactive
PRODH | cell gain with vemurafenib = 0.39; lactate per cell with vemurafenib = 0.6; outcome = inactive
COL25A1 | cell gain with vemurafenib = 0.46; lactate per cell with vemurafenib = 1.15; outcome = inactive
